# Source: paper PMC7862700
# By UniProt entry, the sequences of proteins in these tests, tags left out. Where a name states a change or a piece, a line headed by the entry shows the natural chain unless it says otherwise.
# UniProt Q01892: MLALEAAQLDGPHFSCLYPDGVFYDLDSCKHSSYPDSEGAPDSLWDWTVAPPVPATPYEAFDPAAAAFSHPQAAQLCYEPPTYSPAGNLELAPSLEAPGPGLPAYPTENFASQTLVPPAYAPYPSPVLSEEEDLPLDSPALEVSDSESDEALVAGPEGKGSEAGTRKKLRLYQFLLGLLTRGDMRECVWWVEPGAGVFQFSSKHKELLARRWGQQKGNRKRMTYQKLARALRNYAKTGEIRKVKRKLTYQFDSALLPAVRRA
# UniProt P41161: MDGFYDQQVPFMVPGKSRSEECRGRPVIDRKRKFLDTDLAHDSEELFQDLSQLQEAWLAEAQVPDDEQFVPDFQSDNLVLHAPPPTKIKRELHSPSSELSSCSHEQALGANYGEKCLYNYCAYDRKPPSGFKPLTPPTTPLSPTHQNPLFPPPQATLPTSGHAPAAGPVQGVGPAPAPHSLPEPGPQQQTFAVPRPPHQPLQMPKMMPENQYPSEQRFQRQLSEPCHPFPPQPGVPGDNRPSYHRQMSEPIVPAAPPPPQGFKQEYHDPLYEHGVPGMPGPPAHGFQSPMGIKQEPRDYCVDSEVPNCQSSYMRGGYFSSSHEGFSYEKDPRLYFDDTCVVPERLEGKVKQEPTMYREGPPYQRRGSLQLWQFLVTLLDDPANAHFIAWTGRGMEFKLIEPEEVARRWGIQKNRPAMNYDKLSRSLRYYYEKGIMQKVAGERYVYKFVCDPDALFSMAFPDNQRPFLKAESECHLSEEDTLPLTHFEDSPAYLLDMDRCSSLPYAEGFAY
# UniProt Q99607: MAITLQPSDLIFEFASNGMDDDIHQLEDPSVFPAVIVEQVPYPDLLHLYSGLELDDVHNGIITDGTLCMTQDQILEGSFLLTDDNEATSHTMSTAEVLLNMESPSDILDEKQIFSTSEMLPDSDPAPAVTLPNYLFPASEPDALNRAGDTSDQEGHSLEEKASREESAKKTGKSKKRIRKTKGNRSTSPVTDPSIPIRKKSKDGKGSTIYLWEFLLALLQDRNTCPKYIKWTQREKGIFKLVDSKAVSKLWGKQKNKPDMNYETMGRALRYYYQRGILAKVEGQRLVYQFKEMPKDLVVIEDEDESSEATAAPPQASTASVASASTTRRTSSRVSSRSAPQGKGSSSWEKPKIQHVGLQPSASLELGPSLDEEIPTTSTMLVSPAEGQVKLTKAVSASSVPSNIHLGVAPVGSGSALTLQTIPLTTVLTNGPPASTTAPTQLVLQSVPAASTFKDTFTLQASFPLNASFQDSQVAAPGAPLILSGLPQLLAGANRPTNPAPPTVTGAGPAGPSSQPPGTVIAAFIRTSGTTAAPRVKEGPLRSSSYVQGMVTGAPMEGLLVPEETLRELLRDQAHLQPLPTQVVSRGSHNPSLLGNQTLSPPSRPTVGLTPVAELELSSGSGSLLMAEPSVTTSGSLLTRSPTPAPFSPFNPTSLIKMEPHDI
# Only a part is listed here, and it is no random draw. At the low end of the ranking, values are background and their order means little.
# Columns and labels:
# Assay in all cases: DAPPL (digital affinity profiling via proximity ligation, sequencing)
# Details in all cases: 10 mM Tris-HCl pH 7.5, 50 mM NaCl, 1 mM DTT, 4% glycerol, room temperature, 30 min; GST-TFs on glutathione beads, 16-mer random dsDNA library, 0.1% …; high values mean tight binding; double strand, one strand shown; scale: fold enrichment (6-mer frequency, TF over GST control)
# FLI1 = molecular target: T1, FLI1 (UniProt Q01543)
# T1 sequence: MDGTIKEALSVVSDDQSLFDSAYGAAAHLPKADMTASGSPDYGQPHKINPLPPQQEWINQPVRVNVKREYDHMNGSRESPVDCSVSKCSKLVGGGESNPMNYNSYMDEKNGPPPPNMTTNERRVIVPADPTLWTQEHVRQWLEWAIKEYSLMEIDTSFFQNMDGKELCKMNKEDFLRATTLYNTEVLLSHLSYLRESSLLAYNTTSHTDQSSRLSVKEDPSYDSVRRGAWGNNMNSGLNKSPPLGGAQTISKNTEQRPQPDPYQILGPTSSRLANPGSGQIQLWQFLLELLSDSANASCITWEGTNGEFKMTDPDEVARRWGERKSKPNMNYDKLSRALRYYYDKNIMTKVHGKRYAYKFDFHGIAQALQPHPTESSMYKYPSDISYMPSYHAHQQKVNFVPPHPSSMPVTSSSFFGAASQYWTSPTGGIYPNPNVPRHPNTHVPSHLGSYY
# EHF = molecular target: T2, EHF (UniProt Q9NZC4)
# T2 sequence: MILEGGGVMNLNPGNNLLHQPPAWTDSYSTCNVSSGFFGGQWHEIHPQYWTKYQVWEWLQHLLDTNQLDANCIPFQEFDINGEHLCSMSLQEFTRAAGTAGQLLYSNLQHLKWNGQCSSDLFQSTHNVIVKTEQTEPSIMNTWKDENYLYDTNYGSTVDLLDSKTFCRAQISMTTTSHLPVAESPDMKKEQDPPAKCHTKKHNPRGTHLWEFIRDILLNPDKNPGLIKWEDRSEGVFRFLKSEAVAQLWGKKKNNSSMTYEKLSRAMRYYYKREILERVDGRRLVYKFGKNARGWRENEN
# SPIB = SPIB (UniProt Q01892)
# ETV5 = ETV5 (UniProt P41161)
# ELF4 = ELF4 (UniProt Q99607)
# ETV2 = molecular target: T3, ETV2 (UniProt O00321)
# T3 sequence: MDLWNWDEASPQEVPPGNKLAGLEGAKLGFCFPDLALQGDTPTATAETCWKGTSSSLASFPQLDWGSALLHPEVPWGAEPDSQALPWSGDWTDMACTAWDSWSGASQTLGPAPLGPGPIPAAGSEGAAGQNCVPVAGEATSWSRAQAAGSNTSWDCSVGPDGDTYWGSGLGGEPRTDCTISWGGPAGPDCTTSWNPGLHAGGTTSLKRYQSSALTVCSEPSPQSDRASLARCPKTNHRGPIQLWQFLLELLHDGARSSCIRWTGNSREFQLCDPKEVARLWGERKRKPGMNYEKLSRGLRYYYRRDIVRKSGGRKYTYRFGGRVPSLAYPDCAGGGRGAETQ
# ETV3L = molecular target: T4, ETV3L (UniProt Q6ZN32)
# T4 sequence: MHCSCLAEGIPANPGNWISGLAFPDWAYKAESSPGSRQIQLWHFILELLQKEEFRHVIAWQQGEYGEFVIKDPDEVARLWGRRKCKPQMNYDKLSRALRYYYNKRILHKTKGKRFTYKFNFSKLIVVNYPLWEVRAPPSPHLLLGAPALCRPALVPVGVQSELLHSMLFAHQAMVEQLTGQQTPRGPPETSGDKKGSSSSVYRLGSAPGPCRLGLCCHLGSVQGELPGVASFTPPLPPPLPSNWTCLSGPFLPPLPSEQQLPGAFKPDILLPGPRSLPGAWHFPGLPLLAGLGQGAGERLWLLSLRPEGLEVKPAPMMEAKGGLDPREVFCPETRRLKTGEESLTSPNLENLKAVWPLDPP
Sequence,binding signal (FLI1),binding signal (EHF),binding signal (SPIB),binding signal (ETV5),binding signal (ELF4),binding signal (ETV2),binding signal (ETV3L)
CGGAGA,0.204,0.226,0.21,0.226,0.204,0.192,0.202
GGGATC,0.629,0.62,0.562,0.595,0.638,0.514,0.609
CGGACA,0.785,0.807,0.766,0.813,0.751,0.804,0.795
AAGACG,0.784,0.783,0.807,0.83,0.785,0.693,0.797
GCCCAG,0.697,0.655,0.678,0.718,0.733,0.824,0.708
GCAACG,0.937,0.977,0.954,0.933,0.994,0.797,0.953
ACAGTC,0.439,0.431,0.442,0.419,0.411,0.454,0.425
GCCGAG,0.655,0.616,0.604,0.644,0.647,0.741,0.668
GGCCAC,0.944,1.03,0.972,0.923,0.988,0.871,0.887
GGAGCC,0.337,0.304,0.318,0.343,0.333,0.338,0.307
GCACCG,0.686,0.777,0.678,0.781,0.706,0.715,0.793
ACGGTC,0.735,0.785,0.864,0.756,0.811,0.804,0.83
CGAGAG,0.441,0.406,0.413,0.408,0.418,0.384,0.407
CAAGGA,0.729,0.83,0.695,0.753,0.697,0.763,0.756
GTGTGC,0.798,0.78,0.941,0.878,0.925,0.998,0.848
CGTGAC,0.59,0.589,0.536,0.546,0.525,0.539,0.608
GACGCC,0.835,0.824,0.8,0.864,0.834,0.692,0.883
GACGGG,0.416,0.417,0.419,0.443,0.429,0.423,0.432
GTCAAT,0.803,0.823,0.866,0.795,0.836,0.862,0.868
AGGCAA,0.796,0.75,0.709,0.708,0.737,0.707,0.747

# Reformatted: entries from further up
Sequence | binding signal (FLI1) | binding signal (EHF) | binding signal (SPIB) | binding signal (ETV5) | binding signal (ELF4) | binding signal (ETV2) | binding signal (ETV3L)
GCAACG | 0.937 | 0.977 | 0.954 | 0.933 | 0.994 | 0.797 | 0.953
ACAGTC | 0.439 | 0.431 | 0.442 | 0.419 | 0.411 | 0.454 | 0.425
GCCGAG | 0.655 | 0.616 | 0.604 | 0.644 | 0.647 | 0.741 | 0.668
GGCCAC | 0.944 | 1.03 | 0.972 | 0.923 | 0.988 | 0.871 | 0.887
GGAGCC | 0.337 | 0.304 | 0.318 | 0.343 | 0.333 | 0.338 | 0.307
GCACCG | 0.686 | 0.777 | 0.678 | 0.781 | 0.706 | 0.715 | 0.793
ACGGTC | 0.735 | 0.785 | 0.864 | 0.756 | 0.811 | 0.804 | 0.83
CGAGAG | 0.441 | 0.406 | 0.413 | 0.408 | 0.418 | 0.384 | 0.407
CAAGGA | 0.729 | 0.83 | 0.695 | 0.753 | 0.697 | 0.763 | 0.756

# The list goes on:

Sequence,binding signal (FLI1),binding signal (EHF),binding signal (SPIB),binding signal (ETV5),binding signal (ELF4),binding signal (ETV2),binding signal (ETV3L)
TGAGTG,0.557,0.489,0.411,0.461,0.47,0.509,0.498
AGGATC,0.893,0.866,0.944,0.892,0.852,0.938,0.993
CGTGAT,0.456,0.478,0.429,0.47,0.465,0.41,0.504
CAGGCG,0.267,0.261,0.266,0.264,0.263,0.26,0.293
GGAGTA,0.349,0.343,0.377,0.36,0.344,0.375,0.411
GCCATA,0.871,0.995,0.924,0.842,0.958,0.925,0.908
ATCGTG,0.412,0.397,0.424,0.379,0.397,0.443,0.452
ACCGTG,0.213,0.221,0.239,0.231,0.227,0.223,0.249
GTCGAG,0.44,0.495,0.467,0.439,0.449,0.482,0.468
GCAAGG,0.83,0.793,0.768,0.773,0.807,0.757,0.829
CCGGGA,0.513,0.522,0.508,0.5,0.476,0.443,0.467
GTGTAT,0.975,0.978,0.939,0.971,0.86,0.806,0.829
CGTGCT,0.868,0.816,0.855,0.802,0.848,0.825,0.873
GCAGGA,0.775,0.84,0.876,0.872,0.762,0.857,0.854
GCAGGG,0.697,0.577,0.65,0.596,0.65,0.611,0.658
GGAGTC,0.232,0.235,0.222,0.234,0.215,0.241,0.242
GGGAGT,0.235,0.206,0.247,0.256,0.213,0.296,0.255
AGTTGT,0.811,0.839,0.876,0.83,0.796,0.714,0.781
TTGGAC,0.881,0.946,0.996,0.914,0.97,0.888,0.938
GGCCGC,0.808,0.736,0.855,0.831,0.847,0.758,0.785
